In PubChem BioAssay AID2685 (National Center for Advancing Translational Sciences (NCATS), 2010):
The list shows a part of the results. Further columns of the screen follow, without active or inactive calls. Compounds called inactive in the main read-out are mostly missing here. Words in brackets tell the shape of the fitted curve; partial curves, single points and poor fits give uncertain potencies.

Experiment: qHTS Assay for Lipid Storage Modulators in Drosophila S3 Cells;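 for cell number change: cells counted by Cell Tracker Red CMTPX staining in the red channel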
Conditions: BODIPY lipid droplet fluorescence, 18-24 h; for cell number change: measured here: cell count max response, cells fed with added oleic acid
Summary of the method: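 Laser-scanning cytometry quantifies lipid droplet accumulation (500–530 nm total intensity; droplet/cell object ratio) in oleic acid-fed (400 uM added) Drosophila S3 cells treated with a concentration series. 20 uM Triacsin C defined 100% inhibition.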

[1] = measured here: lipid fluorescence (Fed channel) AC50, cells fed with added oleic acid
[2] = measured here: cell number channel AC50, cells fed with added oleic acid

Row | SMILES | cell number change [%] | AC50 [1] | AC50 [2]
1 | Cc1ccc(C(=O)CCC(=O)N(C)CC(=O)Nc2ccccc2Br)cc1 | 27.3 | 8.2 µM [rising, partial curve] | 
2 | COc1cc(NC(=O)c2ccccc2[N+](=O)[O-])c(C(=O)O)cc1OC | 14.7 | 6.51 µM [falling, partial curve, poor fit] | 6.51 µM [falling, single point]
3 | Cn1cnc([N+](=O)[O-])c1Sc1nc2ccccc2[nH]1 | -29.2 | 0.116 µM [falling, full curve, poor fit] | 
4 | O=C(NC1CCCCC1)c1ccc(-c2cccc([N+](=O)[O-])c2)o1 |  | 29.1 µM [falling, single point] | 
5 | O=C(NCc1ccc(F)cc1)C1CCCN1C(=O)Nc1cccc(F)c1 (stereo unspecified) | 25.5 | 29.1 µM [rising, single point] | 0.731 µM [rising, full curve, poor fit]
6 | CC(C)c1cc(C(=O)NNC(=S)NCc2ccco2)c(O)c(C(C)C)c1 | -65.9 | 14.6 µM [falling, partial curve] | 13 µM [falling, partial curve, poor fit]
7 | O=C(COc1ccc2ccccc2c1)NNC(=O)c1ccccc1 | -1.9 | 6.51 µM [falling, single point] | 
8 | Cc1c(C(=O)OCC(=O)NCCN2C(=O)CSC2=O)oc2c1ccc1ccccc12 | 2.2 | 0.651 µM [rising, full curve] | 
9 | Cc1cccc(OCCNC(=O)c2cccc(Oc3ccc(C(F)(F)F)cc3[N+](=O)[O-])c2)c1 | -17.2 | 5.8 µM [falling, partial curve] | 
10 | CCCSc1nc2cc(S(=O)(=O)N3CCOCC3)ccc2n1CC | 1.74 |  | 6.51 µM [rising, single point]
11 | COc1ccc(S(=O)(=O)O/N=C2\CCSc3ccc(C)cc32)cc1 | 39.2 | 0.116 µM [rising, full curve, poor fit] | 0.0651 µM [rising, full curve, poor fit]
12 | COc1ccc(/C(C)=N/NC(=O)CNC(=O)c2ccco2)cc1 | 5.56 |  | 
13 | CCCCOc1cc(C(=O)OCCN(CC)CC)ccc1N | 14.8 | 4.11 µM [falling, single point] | 
14 | O=C(CCNS(=O)(=O)c1ccccc1)NCCCc1ccccc1 | 2 |  | 
15 | O=C(/C(=C/O)N=Nc1ccccc1)c1ccco1 | 49.8 | 32.6 µM [rising, partial curve, poor fit] | 0.00651 µM [rising, full curve, poor fit]
16 | COc1ccccc1NC(=O)COc1ccc(/C=N/NC(=O)CSCc2cc(C)cc(C)c2)cc1 | 6.35 | 2.31 µM [rising, partial curve] | 
17 | COc1cc(C(=O)N=c2sc3c(C)ccc(OC)c3n2C)cc(OC)c1OC | 24.3 | 0.00461 µM [rising, full curve, poor fit] | 
18 | COc1ccc(C(=O)N2CCN(c3ccc(NC(=O)c4cccnc4)cc3)CC2)cc1 | -37.6 | 29.1 µM [falling, single point] | 29.1 µM [falling, single point]
19 | NC1=C(O)C(=O)C(c2ccccc2)O1 (stereo unspecified) | 5.56 |  | 1.64 µM [rising, partial curve, poor fit]
20 | COc1ccc(Cl)c(Cn2c(NCC(C)O)nc3c2c(=O)n(C)c(=O)n3C)c1 (stereo unspecified) | -20.2 |  | 

Row | SMILES | cell number change [%] | AC50 [1] | AC50 [2]
21 | CCOC(=O)[C@@H]1[C@H]2COc3ccc(Br)cc3[C@@H]2N2C(=O)N(c3ccc(F)cc3)C(=O)[C@]12C | 30.2 | 29.1 µM [rising, single point] | 29.1 µM [rising, partial curve, poor fit]
22 | CCN(CC)C(=O)Cn1cc(S(=O)(=O)CC(=O)Nc2ccc(F)cc2F)c2ccccc21 | -3.24 |  | 
23 | CC(C)(C)C(=O)NCCN1C(=O)S/C(=C\c2ccc([N+](=O)[O-])cc2)C1=O |  | 4.61 µM [falling, single point] | 
24 | COc1ccc(NC(=O)C2CCN(S(=O)(=O)c3cn(C)nc3C)CC2)cc1 | 6.65 | 29.1 µM [rising, single point] | 
25 | Cc1cccc(CCN(C(=O)c2snc(C(N)=O)c2N)C(C(=O)NCC2CCCO2)c2ccc(F)cc2)c1 (stereo unspecified) | -13.7 | 2.91 µM [falling, single point] | 
26 | O=C(NCCO)c1ccc(CSc2nc3ccccc3[nH]2)cc1 | 63.4 |  | 0.92 µM [rising, full curve]
27 | CCCOC(=O)Cn1cnc2scc(-c3ccc(C)cc3)c2c1=O | -1.92 | 29.1 µM [falling, single point] | 
28 | COc1ccc(N(CC(O)CN2C(=O)NC(C)(C)C2=O)S(=O)(=O)c2ccc(C)cc2)cc1 (stereo unspecified) | 35.5 | 5.8 µM [falling, partial curve] | 
29 | CC1=CC(C)(C)NC(=S)N1c1cccc(C)c1 | -12.6 |  | 0.00461 µM [falling, full curve, poor fit]
30 | Cc1nn(CCC#N)c(C)c1Oc1ccccc1O | -18.8 | 4.11 µM [falling, full curve] | 
31 | CN1C(=O)/C(=C2\SC(=S)N(CC3CCCO3)C2=O)c2ccccc21 (stereo unspecified) | 7.96 |  | 
32 | CC1C/C(=N\Nc2ccc(S(N)(=O)=O)cc2[N+](=O)[O-])CC(C)(C)C1 (stereo unspecified) | -59.7 | 29.1 µM [falling, single point] | 25.9 µM [falling, partial curve]
33 | CN(C1CCCCC1)S(=O)(=O)c1cccc(C(=O)Nc2ccccn2)c1 | -2.04 | 2.06 µM [falling, partial curve] | 
34 | CC(C)=CC(=O)OCc1csc(CC(=O)Nc2ccccc2C)n1 | 29 | 0.0731 µM [rising, full curve, poor fit] | 4.11 µM [rising, full curve, poor fit]
35 | O=C(Nc1ncn[nH]1)c1cc([N+](=O)[O-])ccc1Cl | 2.55 |  | 
36 | CCOc1ccc(Nc2nc(N3CCOCC3)nc(N3CCOCC3)n2)cc1 |  | 6.51 µM [rising, full curve] | 
37 | CCOc1cc(Cl)c(S(=O)(=O)NCCCN2CCOCC2)cc1Cl | 6.52 | 29.1 µM [rising, single point] | 
38 | NS(=O)(=O)c1ccc(CCNC(=O)Cc2ccccc2[N+](=O)[O-])cc1 |  |  | 0.146 µM [falling, full curve, poor fit]
39 | OCC[C@@H]1C[C@H](O)[C@@H](O)[C@]2(Cc3ccccc3CCO2)O1 | 21.3 | 11.6 µM [rising, partial curve] | 
40 | CCC(C)Sc1nnc(-c2c[nH]c3ccccc23)n1CCOC (stereo unspecified) | -13.9 | 8.2 µM [falling, partial curve] | 

Whole records, quoted from the list.
CCCCOc1cc(C(=O)OCCN(CC)CC)ccc1N is entered as cell number change [%]: 14.8; AC50 [1]: 4.11 µM [falling, single point]
COc1cc(NC(=O)c2ccccc2[N+](=O)[O-])c(C(=O)O)cc1OC is entered as cell number change [%]: 14.7; AC50 [1]: 6.51 µM [falling, partial curve, poor fit]; AC50 [2]: 6.51 µM [falling, single point]
NS(=O)(=O)c1ccc(CCNC(=O)Cc2ccccc2[N+](=O)[O-])cc1 is entered as AC50 [2]: 0.146 µM [falling, full curve, poor fit]

Additional records.

Row | SMILES | cell number change [%] | AC50 [1] | AC50 [2]
41 | COc1ccc(C2CC(c3ccccc3)Nc3nc(NS(C)(=O)=O)nn32)cc1 (stereo unspecified) | -21.5 | 23.1 µM [falling, single point] | 
42 | CCOC(=O)COn1c(=O)c(-c2ccc(OCC)cc2)[n+]([O-])c2ccccc21 | 20.2 | 5.17 µM [rising, partial curve] | 
43 | Cc1ccc(C(=O)/C=C/Nc2ccccc2C(N)=O)o1 | 102 | 20.6 µM [rising, partial curve] | 29.1 µM [rising, single point]
44 | Cc1ccc(C(=O)n2c(-c3ccccc3)cnc2SCC(=O)Nc2ccc(C)cc2C)cc1 |  | 1.84 µM [rising, single point] | 
45 | CC(C)Oc1ccccc1/C=N/NC(=O)c1ccc(F)cc1 | 35.4 | 11.6 µM [rising, single point] | 6.51 µM [rising, single point]
46 | O=C(Nc1ccc(F)c(F)c1)c1ccccc1 | 14.5 | 25.9 µM [falling, single point] | 
47 | O=C(Nc1nc(-c2cccs2)c(C(=O)C(F)(F)F)s1)c1ccco1 | -17.8 | 0.731 µM [falling, full curve] | 0.651 µM [falling, single point]
48 | COc1ccc(CCNC(=O)CSc2n[nH]c(N)n2)cc1 | 7.89 |  | 
49 | O=Cc1c(Cl)nc2ccccn2c1=O | 18.4 | 29.1 µM [rising, single point] | 6.51 µM [rising, single point]
50 | COc1ccccc1NC(=O)CCC(=O)Nc1nnc(C2CCCCC2)s1 | -14.7 |  | 
51 | COc1ccc(NC(=O)CCCc2ccccc2)c(OC)c1 | 26.7 | 29.1 µM [rising, single point] | 
52 | O=C(CCSCc1ccc(Cl)cc1)NCCC1=CCCCC1 | 15.1 |  | 
53 | COc1cc(C2C(C#N)=C(N)OC3=C2C(=O)CC(C)(C)C3)c([N+](=O)[O-])cc1OC (stereo unspecified) |  | 29.1 µM [falling, single point] | 
54 | NS(=O)(=O)c1ccc(CCNS(=O)(=O)c2cccs2)cc1 | 31.6 | 0.82 µM [rising, full curve, poor fit] | 0.184 µM [rising, full curve, poor fit]
55 | Cc1nc2sc3c(c2c(=O)n1/N=C/c1cccnc1)CCCC3 | -31.4 | 29.1 µM [falling, single point] | 32.6 µM [falling, single point]
56 | CC(C)C(=O)Nc1ccc(NC(=O)c2ccc(COc3ccccc3)cc2)cc1 | 15 | 16.4 µM [rising, partial curve] | 
57 | O=C(Cc1ccccc1Cl)Nc1nc2ccccc2[nH]1 | -18.3 | 0.00461 µM [falling, full curve, poor fit] | 
58 | COc1cc(C2NC(=O)NC(C)=C2C(=O)OCC2CCCCC2)cc(Cl)c1O (stereo unspecified) | -13.9 | 0.731 µM [falling, full curve] | 
